No constants are given. Whether binding was seen depends on the method and setting. In cells and extracts the contact can be indirect. Some results given as binding are weak or reduced against the parent protein; the word gives no strength.

Protein sequences, listed by entry. Tags and fused reporters are not part of them.
UniProt Q9R049: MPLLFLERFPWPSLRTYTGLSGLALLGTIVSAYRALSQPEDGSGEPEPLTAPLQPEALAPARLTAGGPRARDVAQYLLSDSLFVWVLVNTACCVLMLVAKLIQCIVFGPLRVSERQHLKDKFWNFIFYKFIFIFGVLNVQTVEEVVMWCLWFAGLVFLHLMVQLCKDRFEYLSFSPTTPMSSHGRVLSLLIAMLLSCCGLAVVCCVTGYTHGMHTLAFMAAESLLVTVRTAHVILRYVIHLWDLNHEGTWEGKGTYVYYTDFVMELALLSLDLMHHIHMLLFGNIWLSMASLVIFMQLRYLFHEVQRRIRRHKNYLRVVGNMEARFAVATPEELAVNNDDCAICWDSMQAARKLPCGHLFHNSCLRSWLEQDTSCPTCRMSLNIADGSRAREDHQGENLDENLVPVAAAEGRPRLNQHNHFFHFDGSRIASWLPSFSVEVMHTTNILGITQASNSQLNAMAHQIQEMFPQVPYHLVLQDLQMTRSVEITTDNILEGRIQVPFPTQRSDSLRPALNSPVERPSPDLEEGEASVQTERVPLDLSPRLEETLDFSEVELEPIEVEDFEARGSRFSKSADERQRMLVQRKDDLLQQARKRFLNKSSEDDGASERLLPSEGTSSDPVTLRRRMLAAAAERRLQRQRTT

The target of this test is T1, Insig-2 in C2C12 cells (Supplementary Fig. 1g) (UniProt Q9Y5U4).
T1 sequence: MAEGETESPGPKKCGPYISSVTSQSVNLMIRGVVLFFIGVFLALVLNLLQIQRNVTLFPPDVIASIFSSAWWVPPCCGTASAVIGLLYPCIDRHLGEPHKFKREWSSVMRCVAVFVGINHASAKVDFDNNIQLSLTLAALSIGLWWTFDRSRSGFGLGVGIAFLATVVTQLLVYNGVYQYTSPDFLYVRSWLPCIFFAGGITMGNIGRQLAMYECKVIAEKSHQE
Briefly: co-IP; C2C12 cells, undifferentiated and differentiated; IP of Insig-2, gp78 detected by blotting; IP buffer (1× PBS, 1% digitonin, 5 mM EDTA, 5 mM EGTA).

In the case of “gp78 in C2C12 cells (Supplementary Fig. 1g) (from UniProt Q9R049 1-643) (enzyme)”, the binding entry is recorded as “binds”.
